Measurements from patent publication US20260207548A1, “METHODS AND COMPOSITIONS FOR THE TREATMENT OF VASCULAR ANOMALIES” (THE CHILDREN'S MEDICAL CENTER CORPORATION, priority 2022, published 2026).
Entries after “also recorded” stand apart in the source; their conditions may differ. At least one compound was matched to its structure with a doubt left.

System: Hemangioma-derived stem cells (HemSC)
Test: IH xenograft model: patient-derived HemSC in Matrigel injected subcutaneously into nude mice, human blood vessel formation
Assay type: in vivo
Conditions: 1 mg/kg/d, i.p. twice a day, 7 days, vs vehicle
Experimental: MilliporeSigma) was prepared in DMSO. […] Dako, Glostrup, 0823) to stain human ECs. Next, sections were incubated with Alexa Fluor 647 chicken anti-mouse IgG (1:200, Invitrogen, Thermo Fisher Scientific) as a secondary antibody (FIG. 9C, 9D).

CCC(C)(C)C(=O)O[C@H]1C[C@@H](C)C=C2C=C[C@H](C)[C@H](CC[C@@H]3C[C@@H](O)CC(=O)O3)[C@H]21 [simvastatin]
vessel formation / vessel density: significantly inhibit vessel formation; also recorded: significant inhibitory effect on vessel formation; also recorded: significant reduction of vessel density
